Data reported in article PMC10854458.
These are yes or no findings as the source states them, for the method shown. For part of these data: Binding seen in cells or lysates may run through a third protein. Some entries that bind do so weakly or less than the wild type.

Amino acid sequences for entries named in this document (tags omitted). Residues count along the entry.
UniProt P63038, residues 27-573: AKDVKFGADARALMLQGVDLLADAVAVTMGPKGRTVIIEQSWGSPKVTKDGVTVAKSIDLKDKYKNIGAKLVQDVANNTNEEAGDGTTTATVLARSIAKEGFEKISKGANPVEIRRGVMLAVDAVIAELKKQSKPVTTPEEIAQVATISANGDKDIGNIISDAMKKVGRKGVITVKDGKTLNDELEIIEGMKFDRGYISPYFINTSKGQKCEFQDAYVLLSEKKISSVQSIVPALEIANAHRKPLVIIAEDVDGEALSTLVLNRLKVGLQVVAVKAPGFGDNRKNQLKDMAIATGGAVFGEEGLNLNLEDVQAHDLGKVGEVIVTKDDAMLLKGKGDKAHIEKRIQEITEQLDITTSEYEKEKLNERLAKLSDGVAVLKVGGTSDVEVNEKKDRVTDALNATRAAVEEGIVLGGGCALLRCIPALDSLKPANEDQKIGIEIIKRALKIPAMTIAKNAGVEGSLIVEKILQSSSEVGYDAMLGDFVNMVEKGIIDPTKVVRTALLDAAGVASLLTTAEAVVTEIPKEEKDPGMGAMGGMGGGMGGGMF
UniProt Q64433: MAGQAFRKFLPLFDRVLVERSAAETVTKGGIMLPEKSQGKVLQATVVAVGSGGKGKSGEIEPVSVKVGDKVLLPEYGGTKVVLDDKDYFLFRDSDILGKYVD

B1: SIRT4 recombinant protein (enzyme, UniProt Q8R216 26-333)
chain: SGLFVPPSPPLDPEKIKELQRFISLSKKLLVMTGAGISTESGIPDYRSEKVGLYARTDRRPIQHIDFVRSAPVRQRYWARNFVGWPQFSSHQPNPAHWALSNWERLGKLHWLVTQNVDALHSKAGSQRLTELHGCMHRVLCLNCGEQTARRVLQERFQALNPSWSAEAQGVAPDGDVFLTEEQVRSFQVPCCDRCGGPLKPDVVFFGDTVNPDKVDFVHRRVKEADSLLVVGSSLQVYSGYRFILTAREQKLPIAILNIGPTRSDDLACLKLDSRCGELLPLIDPRRQHSDVQRLEMNFPLSSAAQDP
B2: SIRT4 (endogenous, mitochondria of AML-12 cells) (enzyme, UniProt Q8R216 26-333)
chain: B1 chain

Experiments:
[1] = molecular target: mitochondrial HSP60 (endogenous, mitochondria of AML-12 cells) (mouse (endogenous in AML-12)) (UniProt P63038); assay: co-IP; Dynabeads Protein A/G with SIRT4 or HSP60 antibody, 300 ug mitochondrial protein of AML-12 cells, overnight at 4 C; cells treated with Gln alone or in combination with LPS; blots for SIRT4, HSP60, HSP10
[2] = molecular target: HSP60 recombinant protein (UniProt P63038); assay: ITC; Auto ITC200; 10 uM HSP60 in the cell, 100 uM SIRT4 titrated, 20 titrations of 2 uL, interval 120 s; proteins dissolved in deionized water; multi-point binding model; both purified

Molecule | binding [1] | binding [2]
HSP10 (endogenous, mitochondria of AML-12 cells) (from UniProt Q64433 1-102) | binds | 
B1 |  | binds
B2 | binds | 
